Measurements: PMC10081989
These are yes or no findings as the source states them, for the method shown. Binding seen in cells or lysates may run through a third protein. Some binding calls cover weakened binding; strength is not graded here.

Chains of the proteins cited; added tags and fusions are not shown.
UniProt Q61188: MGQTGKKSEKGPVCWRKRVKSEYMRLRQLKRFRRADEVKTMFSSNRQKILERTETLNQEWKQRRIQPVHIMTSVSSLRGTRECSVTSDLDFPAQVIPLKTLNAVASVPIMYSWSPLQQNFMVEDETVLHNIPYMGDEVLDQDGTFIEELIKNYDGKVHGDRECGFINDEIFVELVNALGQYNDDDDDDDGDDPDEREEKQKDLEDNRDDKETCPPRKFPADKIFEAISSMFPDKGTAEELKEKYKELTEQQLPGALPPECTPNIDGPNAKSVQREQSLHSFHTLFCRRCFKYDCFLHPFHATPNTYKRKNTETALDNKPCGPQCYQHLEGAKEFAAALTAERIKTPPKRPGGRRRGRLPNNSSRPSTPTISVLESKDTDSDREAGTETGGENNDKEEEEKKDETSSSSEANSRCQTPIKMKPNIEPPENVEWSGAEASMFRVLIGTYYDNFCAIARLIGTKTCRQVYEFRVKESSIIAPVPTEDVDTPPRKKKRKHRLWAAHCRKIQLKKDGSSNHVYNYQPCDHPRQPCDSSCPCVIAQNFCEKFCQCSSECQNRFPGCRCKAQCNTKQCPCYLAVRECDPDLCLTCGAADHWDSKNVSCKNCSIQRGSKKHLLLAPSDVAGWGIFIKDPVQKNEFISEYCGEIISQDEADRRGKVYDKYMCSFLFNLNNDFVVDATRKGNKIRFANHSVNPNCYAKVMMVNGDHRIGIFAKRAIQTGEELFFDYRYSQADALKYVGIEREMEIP

Target: Enhancer of zeste homolog 2 (mouse, RAW264.7) (mouse (endogenous in RAW264.7)) (UniProt Q61188)
Experiment: co-IP; lysates of RAW264.7 cells cultured with 10% (vol/vol) medium of HK2 cells treated with 0.5 mM H2O2, immunoprecipitation with IgG or EZH2 antibody, then EZH2 and STAT6 immunoblotting

B1: Signal transducers and activators of transcription 6 (protein, UniProt P52633 1-837)
chain: MSLWGLISKMSPEKLQRLYVDFPQRLRHLLADWLESQPWEFLVGSDAFCYNMASALLSATVQRLQATAGEQGKGNSILPHISTLESIYQRDPLKLVATIRQILQGEKKAVIEEFRHLPGPFHRKQEELKFTTALGRLQHRVRETRLLRESLQQGAKTGQVSLQNLIDPPVNGPGPSEDLATMLQGTVGDLEATQALVLKRIQIWKRQQQLAGNGTPFEESLAGLQERCESLVEIYSQLQQEIGAASGELEPKTRASLISRLDEVLRTLVTSSFLVEKQPPQVLKTQTKFQAGVRFLLGLQFLGTSAKPPMVRADMVTEKQARELSLAQGPGTGVESTGEIMNNTVPLENSIPSNCCSALFKNLLLKKIKRCERKGTESVTEEKCAVLFSTSFTLGPNKLLIQLQALSLPLVVIVHGNQDNNAKATILWDNAFSEMDRVPFVVAERVPWEKMCETLNLKFMAEVGTSRGLLPEHFLFLAQKIFNDNSLSVEAFQHRCVSWSQFNKEILLGRGFTFWQWFDGVLDLTKRCLRSYWSDRLIIGFISKQYVTSLLLNEPDGTFLLRFSDSEIGGITIAHVIRGQDGSSQIENIQPFSAKDLSIRSLGDRIRDLAQLKNLYPKKPKDEAFRSHYKPEQMGKDGRGYVSTTIKMTVERDQPLPTPEPQMPAMVPPYDLGMAPDASMQLSSDMGYPPQSIHSFQSLEESMSVLPSFQEPHLQMPPNMSQITMPFDQPHPQGLLQCQSQEHAVSSPEPMLCSDVTMVEDSCLTQPVGGFPQGTWVSEDMYPPLMPPTEQDLTKLLLENQGEAGGSLGSQPLLQPSPYGQSGISLSHLDLRTNPSW
binding: binds
